Results deposited as PubChem BioAssay AID686938 (Drosophila RNAi Screening Center, 2013).
In all, the deposit lists about 23,000 reagents; this is a random part of those that have a named target and a result. Over the whole deposit, 75 (0.33%) are marked active. 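Raw plate signals without normalisation; calls rest on plate z-scores that were not deposited; ratio present for only 364 wells.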 Not stated in the record: the dose of the treatment.

Aim: 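Looking for CRAC channel components and the factors controlling them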 (primary screen)
System: Drosophila S2R+ cells
Reagent: long dsRNA against Drosophila genes, about 0.25 µg dsRNA per well, roughly 10,000 cells
Duration: 5 days of knock-down before the calcium assay
Conditions: thapsigargin (SERCA pump blocker) to empty calcium stores; entry signal taken 4 min after adding it
Measurement: 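Duplicate raw fluo-4 intensities per well from a plate reader, at rest and four minutes after thapsigargin emptied calcium stores; entry-to-rest ratio filled for only some wells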
Scale: calcium entry signal: higher = stronger calcium signal after store depletion; entry to resting ratio: higher = more calcium entry relative to resting level; resting calcium signal: higher = higher resting calcium signal
Units: calcium entry signal in fluorescence units; resting calcium signal in fluorescence units
Rule for the call: 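Hit if the duplicate-averaged plate z-score for entry over resting signal is under −3; wells with weak total dye signal (Fmax z < −2) or more than 5 off-targets removed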
Calls: active = strongly reduced calcium entry; inactive = no strong reduction

CG16972 [DRSC02550] — calcium entry signal, replicate 1: 4.79e7; resting calcium signal, replicate 1: 2.30e7; outcome: inactive
Coa8 [DRSC17959] — calcium entry signal, replicate 1: 5.11e7; calcium entry signal, replicate 2: 6.02e7; entry to resting ratio: 2.1; resting calcium signal, replicate 1: 2.43e7; resting calcium signal, replicate 2: 2.35e7; outcome: inactive
dhd [DRSC18761] — calcium entry signal, replicate 1: 2.17e7; calcium entry signal, replicate 2: 3.36e7; resting calcium signal, replicate 1: 1.12e7; resting calcium signal, replicate 2: 1.48e7; outcome: inactive
Npc2c [DRSC15523] — calcium entry signal, replicate 1: 3.18e7; calcium entry signal, replicate 2: 2.40e7; resting calcium signal, replicate 1: 1.52e7; resting calcium signal, replicate 2: 1.35e7; outcome: inactive
CG12680 [DRSC17871] — calcium entry signal, replicate 1: 3.37e7; calcium entry signal, replicate 2: 3.91e7; resting calcium signal, replicate 1: 1.71e7; resting calcium signal, replicate 2: 1.80e7; outcome: inactive
CG4080 [DRSC10398] — calcium entry signal, replicate 1: 5.10e7; calcium entry signal, replicate 2: 4.25e7; resting calcium signal, replicate 1: 3.33e7; resting calcium signal, replicate 2: 1.79e7; outcome: inactive
sw [DRSC20388] — calcium entry signal, replicate 1: 3.49e7; calcium entry signal, replicate 2: 3.79e7; resting calcium signal, replicate 1: 1.81e7; resting calcium signal, replicate 2: 1.98e7; outcome: inactive
CG10912 [DRSC06009] — calcium entry signal, replicate 1: 3.75e7; calcium entry signal, replicate 2: 3.52e7; resting calcium signal, replicate 1: 1.73e7; resting calcium signal, replicate 2: 1.74e7; outcome: inactive
CG13654 [DRSC14654] — calcium entry signal, replicate 1: 3.40e7; calcium entry signal, replicate 2: 6.25e7; resting calcium signal, replicate 1: 1.81e7; resting calcium signal, replicate 2: 2.71e7; outcome: inactive
CG10561 [DRSC02068] — calcium entry signal, replicate 1: 5.14e7; resting calcium signal, replicate 1: 2.51e7; outcome: inactive
Stt3A [DRSC20514] — calcium entry signal, replicate 1: 3.18e7; calcium entry signal, replicate 2: 3.72e7; resting calcium signal, replicate 1: 1.54e7; resting calcium signal, replicate 2: 1.65e7; outcome: inactive
porin [DRSC03594] — calcium entry signal, replicate 1: 5.15e7; resting calcium signal, replicate 1: 2.28e7; outcome: inactive

Reprinted from the listing (2 entries):
CG10561 [DRSC02068] — calcium entry signal, replicate 1: 5.14e7; resting calcium signal, replicate 1: 2.51e7; outcome: inactive
Stt3A [DRSC20514] — calcium entry signal, replicate 1: 3.18e7; calcium entry signal, replicate 2: 3.72e7; resting calcium signal, replicate 1: 1.54e7; resting calcium signal, replicate 2: 1.65e7; outcome: inactive
